For 1 substance, isolated mass results are on record in patent US5688913A (Cytel Corporation, priority 1995, dated 1997).

Some peptides are written in HELM: one residue between dots, names in brackets for other building blocks, links after the first $.

The nature of the series: general procedure: Fmoc solid-phase peptide synthesis; Rink amide MBHA; DIC/HOBt. As to conditions: whole synthesis, scale 5 mmoles.

With “PEPTIDE1{[caph9ccb84].L.D.F.[dP].[am]}$$$$V2.0”, the isolated mass is given as 1.8 g.
